Values from PubChem BioAssay AID1508597 (Cure First, 2020)

- Aim: 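Knock-downs altering ovarian cancer cell survival with or without PARP inhibitor rucaparib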 (primary screen)
- System: human ovarian carcinoma lines grown from tumours: OCI-P5x (papillary serous) and OCI-C5x (clear cell)
- Reagents: siRNA pool against human genes, 1.25 pmol siRNA per well
- Duration: 72 h or 96 h, depending on the cell culture
- Challenge: rucaparib 20 µM (about IC30) or vehicle, present until read-out
- Read-out: 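ATP luminescence measured at 72 or 96 h according to the culture, then normalised and expressed as percent viability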
- Direction: viability, normalised: higher = more viable cells remaining
- Active means: 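a well counts as a hit if its normalised viability is under 80 percent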
- Calls: active = viability under 80%; inactive = viability 80% or more
Shown is one part, drawn at random, of about 2,100 deposited reagents. 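Calls flag viability under 80% in either arm, not effects specific to rucaparib; the reference for percent is not stated.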 Unmarked entries are inactive. No sequences are given here. Not stated in the record: the 100% reference.

The opening 3 records, to show the layout:
Target gene | rucaparib or vehicle | cell line | technical replicate | viability, normalised (%)
RAD50 | Rucaparib | OCI-C5x (clear cell) | 1 | 49.2 (active)
RAD50 | Rucaparib | OCI-C5x (clear cell) | 2 | 46.4 (active)
RAD50 | Rucaparib | OCI-C5x (clear cell) | 3 | 44.8 (active)

Main list, from the start:
Target gene | rucaparib or vehicle | cell line | technical replicate | viability, normalised (%)
RAD50 | Rucaparib | OCI-C5x (clear cell) | 1 | 49.2 (active)
RAD50 | Rucaparib | OCI-C5x (clear cell) | 2 | 46.4 (active)
RAD50 | Rucaparib | OCI-C5x (clear cell) | 3 | 44.8 (active)
RAD50 | Rucaparib | OCI-P5x (serous) | 1 | 77.6 (active)
RAD50 | Rucaparib | OCI-P5x (serous) | 2 | 91.5
RAD50 | Rucaparib | OCI-P5x (serous) | 3 | 103
RAD50 | Vehicle | OCI-C5x (clear cell) | 1 | 47.7 (active)
RAD50 | Vehicle | OCI-C5x (clear cell) | 2 | 39.6 (active)
RAD50 | Vehicle | OCI-C5x (clear cell) | 3 | 48.3 (active)
RAD50 | Vehicle | OCI-P5x (serous) | 1 | 81.2
RAD50 | Vehicle | OCI-P5x (serous) | 2 | 78.8 (active)
RAD50 | Vehicle | OCI-P5x (serous) | 3 | 73.7 (active)
BCR | Rucaparib | OCI-C5x (clear cell) | 1 | 47.5 (active)
BCR | Rucaparib | OCI-C5x (clear cell) | 2 | 61.9 (active)
BCR | Rucaparib | OCI-C5x (clear cell) | 3 | 66.3 (active)
BCR | Rucaparib | OCI-P5x (serous) | 1 | 111
BCR | Rucaparib | OCI-P5x (serous) | 2 | 121
BCR | Rucaparib | OCI-P5x (serous) | 3 | 114
BCR | Vehicle | OCI-C5x (clear cell) | 1 | 72.9 (active)
BCR | Vehicle | OCI-C5x (clear cell) | 2 | 71.7 (active)
BCR | Vehicle | OCI-C5x (clear cell) | 3 | 57.5 (active)
BCR | Vehicle | OCI-P5x (serous) | 1 | 116
BCR | Vehicle | OCI-P5x (serous) | 2 | 105
BCR | Vehicle | OCI-P5x (serous) | 3 | 101
